The values below come from PubChem BioAssay AID2685 (National Center for Advancing Translational Sciences (NCATS), 2010).

The assay can be described thus: qHTS Assay for Lipid Storage Modulators in Drosophila S3 Cells.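 As to cell number change: cells counted by Cell Tracker Red CMTPX staining in the red channel.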 The note with it: BODIPY lipid droplet fluorescence, 18-24 h; for cell number change: measured here: cell count max response, cells fed with added oleic acid. An outline of the steps:
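Laser-scanning cytometry quantifies lipid droplet accumulation (500–530 nm total intensity; droplet/cell object ratio) in oleic acid-fed (400 uM added) Drosophila S3 cells treated with a concentration series. 20 uM Triacsin C defined 100% inhibition.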

The mark [1] stands for this setting: measured here: lipid fluorescence (Fed channel) AC50, cells fed with added oleic acid.
Setting [2] is: measured here: cell number channel AC50, cells fed with added oleic acid.

This is one part of the list. Shown are side measurements of this screen, not its main read-out; they come without a call. The list favours compounds with an active or inconclusive main result. Potencies come from curve fits of mixed quality, noted in brackets.

One may read the AC50 as the midpoint of the concentration-response curve, whichever way the signal moves.

On to `COc1ccc(-n2cccc2C=O)cc1OC`, for which the cell number change is 18.4%. Besides, under setting [1], the AC50 is 29.1 µM [rising, single point].

On to `Cc1ccccc1Cn1cc(NC(=O)c2nn(C)cc2Cl)cn1`, for which the cell number change was 34.8%. Also, under setting [2], the AC50 is 0.00517 µM [rising, full curve, poor fit]. For the same compound, the AC50 under setting [1] is 0.146 µM [rising, full curve, poor fit].

For the compound `C=C(C)c1ccc(C(C)(C)NC(=O)N2CCN(C)CC2)cc1`, the cell number change is -4.2%. The AC50 under setting [1] is 13 µM [falling, partial curve, poor fit].

In the case of `N#CCc1ccccc1C(=O)OCC(=O)N(Cc1ccccc1)Cc1ccccc1`, the cell number change is -0.125%. Further, the AC50 under setting [1] is 29.1 µM [falling, single point].

`CC(NC(=O)CSc1ncccn1)c1ccc(Cl)cc1Cl` (stereo not given): the cell number change is -0.855%. Also, under setting [2], the AC50 was 0.00517 µM [falling, full curve, poor fit]. The AC50 under setting [1] is 2.91 µM [falling, single point].

On to `Cn1c(C23CC4CC(CC(C4)C2)C3)n[nH]c1=S`, for which the cell number change was 8.75%. Under setting [2], the AC50 is 6.51 µM [rising, partial curve, poor fit]. For the same compound, the AC50 under setting [1] is 0.103 µM [falling, full curve].

As for `Cc1ccc(S(=O)(=O)N2CCN(C(=O)CCCN3C(=O)NC4(CCCC4)C3=O)CC2)cc1C`, the cell number change worked out at 9.03%. Further, the AC50 under setting [1] is 0.58 µM [rising, full curve].

As for `COc1ccc(C(=O)COC(=O)CCS(=O)(=O)c2ccc(C)cc2)c(OC)c1`, the cell number change amounted to 100%. The AC50 under setting [2] was 29.1 µM [rising, single point]. Moreover, the AC50 under setting [1] is 29.1 µM [falling, single point].

For the compound `CCOc1ncccc1C(=O)OCC(=O)c1ccc[nH]1`, the cell number change was -8.16%. In addition, under setting [1], the AC50 was 0.13 µM [falling, full curve, poor fit].

Consider `Cc1nnc(-c2ccc(N3CCCCCC3)c([N+](=O)[O-])c2)o1`, for which the cell number change was 21.6%. Besides, the AC50 under setting [1] was 1.84 µM [rising, partial curve].

Regarding `COc1ccc(CN(C(=O)c2oc3ccc(F)cc3c2C)C2CCS(=O)(=O)C2)cc1` (stereo not given), the cell number change was -26.7%. Also, the AC50 under setting [1] is 29.1 µM [falling, single point].

On to `CC(C)CCNC(=O)c1onc(CSc2nc3ccccc3[nH]2)c1C(=O)NCCC(C)C`, for which the cell number change was -2.99%.

As for `Cn1ncc(Cl)c1C(=O)NNC(=O)Nc1cccc2ccccc12`, the cell number change was -18.1%. Also, under setting [2], the AC50 is 0.206 µM [falling, full curve, poor fit].

For `O=C1CCN1C1(C(=O)NC2CCCCC2)CCCC1`, the cell number change is -51.8%. The AC50 under setting [2] was 32.6 µM [falling, single point]. Besides, under setting [1], the AC50 is 29.1 µM [falling, single point].

In the case of `CCOC(=O)C(C(=O)N1CCOCC1)C1CCCCC1` (stereo not given), the cell number change is -32.7%. For the same compound, the half-maximal activity concentration (AC50) under setting [2] is 0.326 µM [falling, full curve, poor fit]. The AC50 under setting [1] is 20.6 µM [falling, single point].
